Results are given in words; binding and its absence hold for the method and conditions named. Binding seen in cells or lysates may run through a third protein.
Target: T1, endogenous ASPL (human (endogenous in HeLa or MelJuSo)) (UniProt Q9BZE9)
T1 sequence: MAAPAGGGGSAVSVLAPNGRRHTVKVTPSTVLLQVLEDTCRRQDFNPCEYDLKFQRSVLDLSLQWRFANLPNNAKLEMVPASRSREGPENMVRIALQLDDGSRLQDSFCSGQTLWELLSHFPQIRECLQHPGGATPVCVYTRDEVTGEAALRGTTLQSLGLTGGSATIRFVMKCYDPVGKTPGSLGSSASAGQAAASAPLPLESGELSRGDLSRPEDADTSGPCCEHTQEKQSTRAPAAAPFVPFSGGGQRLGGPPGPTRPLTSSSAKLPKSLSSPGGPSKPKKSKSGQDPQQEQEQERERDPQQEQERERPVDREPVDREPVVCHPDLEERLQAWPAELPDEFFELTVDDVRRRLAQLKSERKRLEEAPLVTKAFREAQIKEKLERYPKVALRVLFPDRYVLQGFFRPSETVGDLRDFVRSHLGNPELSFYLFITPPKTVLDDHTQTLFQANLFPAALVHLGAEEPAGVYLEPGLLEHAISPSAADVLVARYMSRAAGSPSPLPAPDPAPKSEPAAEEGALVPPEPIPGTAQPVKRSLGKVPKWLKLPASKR
Test: co-IP; endogenous proteins; antibody to ASPL and Protein A Sepharose, beads only as control; MelJuSo cell lysates, buffer not told for these blots; blots for Rpn1 and the 20S α-subunits

Sequences of proteins named here, by UniProt entry; tags and fusion partners are left off.
UniProt Q13200: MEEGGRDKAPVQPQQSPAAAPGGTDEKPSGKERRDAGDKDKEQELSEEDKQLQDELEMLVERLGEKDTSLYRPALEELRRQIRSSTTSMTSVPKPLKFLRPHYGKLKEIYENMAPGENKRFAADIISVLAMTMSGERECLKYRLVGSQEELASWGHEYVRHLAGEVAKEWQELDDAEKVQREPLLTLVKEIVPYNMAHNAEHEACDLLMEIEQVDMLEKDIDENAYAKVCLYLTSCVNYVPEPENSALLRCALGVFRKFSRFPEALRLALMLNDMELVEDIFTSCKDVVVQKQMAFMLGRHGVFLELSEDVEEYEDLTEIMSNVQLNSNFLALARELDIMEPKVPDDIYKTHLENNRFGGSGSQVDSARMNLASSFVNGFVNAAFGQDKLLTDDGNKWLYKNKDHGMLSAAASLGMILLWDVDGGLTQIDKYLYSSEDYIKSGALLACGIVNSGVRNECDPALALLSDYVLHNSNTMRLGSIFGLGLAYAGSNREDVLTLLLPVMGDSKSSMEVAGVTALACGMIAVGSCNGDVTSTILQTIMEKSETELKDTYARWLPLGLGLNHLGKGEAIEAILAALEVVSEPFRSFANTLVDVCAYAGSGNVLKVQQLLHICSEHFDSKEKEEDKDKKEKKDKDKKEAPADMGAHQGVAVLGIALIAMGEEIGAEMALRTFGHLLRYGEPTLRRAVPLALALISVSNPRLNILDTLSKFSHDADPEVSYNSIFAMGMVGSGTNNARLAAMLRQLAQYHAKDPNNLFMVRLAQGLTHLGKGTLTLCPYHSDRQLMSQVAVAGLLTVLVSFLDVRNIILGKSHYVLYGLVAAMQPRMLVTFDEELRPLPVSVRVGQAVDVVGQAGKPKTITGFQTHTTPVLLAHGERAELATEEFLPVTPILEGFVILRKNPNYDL

binding: no binding
Substance: Rpn1 subunit of the 19S proteasome complex, endogenous (from UniProt Q13200 1-908)
